This is one part of the list. Further columns of the screen follow, without active or inactive calls. Most of these compounds were active or inconclusive in the main read-out, so they are no random draw. Words in brackets tell the shape of the fitted curve; partial curves, single points and poor fits give uncertain potencies.

A short description of this test: Cell signaling CRE-BLA (Fsk stim). Conditions: CHO CRE-bla reporter (cAMP response element driving beta-lactamase), forskolin EC10, beta-lactamase ratio; measured here: 460 nm blue channel. A digest of the protocol: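 AC50 values, positive or negative, reflect shifts in EC10 NKH 477-induced CRE-bla reporter activity in CHO cells. Incubation lasted 3 h at 37 °C before CCF4 substrate (2 h, room temperature) and ratiometric 460/530 nm reading.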
As a reminder, the AC50 is the midpoint of the concentration-response curve, whichever way the signal moves. For the molecule `COc1ccccc1C(=O)NCCC(=O)N1CC(=O)Nc2ccccc21`, the AC50 was 5.01 µM [falling, single point].

For the molecule `O=c1c(-c2ccccc2)nc2cnc(Nc3ccccc3)nc2n1C[C@H]1CCCO1`, the AC50 was 1.58 µM [rising, full curve].

On to `CCCCn1c(SCC(=O)NCCc2ccc(OC)c(OC)c2)nc2c1c(=O)n(C)c(=O)n2C`, for which the AC50 was 0.398 µM [falling, partial curve].

For `CNC/C(Cl)=N/S(=O)(=O)c1ccc(C)cc1`, the AC50 was 0.1 µM [rising, single point].

Regarding `O=C(O)CCSc1nc2ccccc2c(=O)[nH]1`, the AC50 was 2 µM [falling, partial curve].

Consider `Clc1ccccc1-c1ccc2ncnc(NCc3cccnc3)c2c1`, for which the AC50 was 12.6 µM [rising, partial curve].

Turning to `COc1ccc(-n2c(=O)c(-c3cn(C)c4ccccc34)nc3cncnc32)cc1`, the AC50 is 10 µM [rising, partial curve].

In the case of `COCCOC(=O)C1=C(C)NC(=O)NC1c1cn(-c2ccccc2)nc1-c1cccs1` (stereo unspecified), the AC50 was 25.1 µM [rising, single point].

`Cc1ccnc(NC(=O)COC(=O)C2COc3ccccc3O2)n1` (stereo unspecified): the AC50 is 0.0794 µM [falling, full curve, poor fit].

Turning to `N#Cc1nc(-c2ccccc2F)oc1N1CCCC1`, the AC50 was 25.1 µM [rising, single point].

With `C=C(C)C(C)(C#CCN1CCCC1)OC(C)=O` (stereo unspecified), the AC50 is 3.98 µM [falling, single point].

Regarding `O=C(COC(=O)C1CC2C=CC1C2)NCc1ccco1` (stereo unspecified), the AC50 is 5.01 µM [rising, single point].

Consider `CCN(CC)S(=O)(=O)c1ccc2[nH]cc(C(=O)NCCc3ccc(OC)c(OC)c3)c(=O)c2c1`, for which the AC50 was 2 µM [rising, full curve].

`CCOC(=O)C(CC)n1cnc2c(cnn2-c2ccc(Cl)cc2)c1=O` (stereo unspecified): the AC50 is 12.6 µM [rising, single point].

With `CCCCn1c(=NC(=O)c2ccc3c(c2)OCO3)c(C#N)cc2c(=O)n3cccc(C)c3nc21`, the AC50 was 1 µM [rising, partial curve, poor fit].

Take `c1ccc2c(c1)NC1(CCCCC1)n1c-2nc2ccccc21`: the AC50 was 0.794 µM [rising, full curve, poor fit].

Turning to `COCCn1c(=O)c(-c2cccc(C#N)c2)nc2cnc(OC)nc21`, the AC50 was 12.6 µM [rising, partial curve].

With `COc1ccc(OC)c(NC(=O)CC(Cc2ccccc2OC)C(=O)O)c1` (stereo unspecified), the AC50 was 0.0398 µM [falling, full curve, poor fit].

Regarding `CCOc1ccc(C2=CS/C(=C(\C#N)c3nnc4n3CCCCC4)N2CC)cc1`, the AC50 is 25.1 µM [falling, single point].

With `Cc1ccsc1C=Nc1ccc(O)cc1`, the AC50 was 25.1 µM [falling, single point].

Consider `Nc1cc(OC(=O)c2cccs2)nn1S(=O)(=O)c1ccccc1`, for which the AC50 is 0.00631 µM [falling, full curve, poor fit].

For `O=C(CCn1c(=S)[nH]c2ccccc2c1=O)N1CCN(c2ccccn2)CC1`, the concentration at half-maximal activity (AC50) was 12.6 µM [rising, partial curve].

Regarding `CCOc1ccc(NC(=O)N2CCC(n3c(=O)[nH]c4ccccc43)CC2)cc1`, the AC50 is 12.6 µM [falling, single point].

As to `CCOc1ccc2[nH]c(=O)c(C(c3nnnn3Cc3ccco3)N3CCCC(C)C3)cc2c1` (stereo unspecified), the AC50 is 15.8 µM [rising, single point].

Take `C=CCNc1nc2c(c(=O)n(C)c(=O)n2C)n1CC`: the AC50 was 10 µM [rising, partial curve].

Take `N#Cc1cccc(-c2nc3cnc(N4CCNCC4)nc3n(C3CC3)c2=O)c1`: the AC50 was 10 µM [rising, partial curve].

Consider `COc1cc(NC(=O)C2CCN(S(=O)(=O)c3cccnc3)CC2)cc(OC)c1OC`, for which the AC50 was 3.16 µM [falling, partial curve, poor fit].

Consider `CCOc1ccccc1-c1nc(-c2ccc(NC(=O)Cc3ccc(OC)cc3)cc2)no1`, for which the AC50 is 3.16 µM [falling, partial curve].

With `CCOC(=O)c1ccccc1NC(=O)c1cc(S(=O)(=O)N2CCOCC2)ccc1F`, the AC50 was 10 µM [rising, partial curve].

As to `COc1ccc(C(=O)NCc2nnc(SCC(=O)Nc3cccc(C(F)(F)F)c3)o2)cc1OC`, the AC50 was 20 µM [rising, partial curve, poor fit].

Turning to `Cc1nc2c3c(-c4ccccc4)nc(N4CCOCC4)nc3nn2c(C)c1CCC(=O)O`, the AC50 is 0.00316 µM [falling, full curve, poor fit].

Take `CN(Cc1ccco1)c1ncncc1-c1ccccc1Cl`: the AC50 was 20 µM [falling, partial curve, poor fit].

In the case of `COc1ccc(-n2nc3cc(C)c(NC(=O)CC(C)C)cc3n2)cc1`, the AC50 is 0.398 µM [rising, single point].

On to `O=C(CSc1nc(Nc2ccccc2)nc(N2CCOCC2)n1)Nc1ccccc1Cl`, for which the AC50 is 12.6 µM [rising, single point].

For the molecule `CC(C)[C@@H](CC(=O)N[C@@H]1CCNC[C@H]1C(=O)N[C@H](CC(=O)N[C@@H](CCC(=O)O)CC(=O)O)Cc1c[nH]c2ccccc12)NC(=O)C[C@H](CO)NC(=O)[C@@H]1CNCC[C@H]1N`, the AC50 was 15.8 µM [falling, partial curve, poor fit].

For `CC1=C(C)C(=O)N(c2ccccn2)C1=O`, the AC50 is 31.6 µM [falling, partial curve].

With `COc1ccc(C2=NOC(C(=O)Nc3ccc(C)cc3)C2)cc1OC` (stereo unspecified), the AC50 is 0.398 µM [falling, full curve, poor fit].

For the molecule `Cn1c(C(=O)N2COCC2(C)C)cc2c(=O)n3ccccc3nc21`, the AC50 was 12.6 µM [rising, partial curve].

Take `O=C(c1ccc2c(c1)C(=O)N(Cc1ccco1)C2=O)N1CCOCC1`: the AC50 is 0.00316 µM [rising, full curve, poor fit].

For `CC(=O)c1ccc(N2CCCCCC2)c(F)c1`, the AC50 is 0.00316 µM [falling, full curve, poor fit].

As for `CS(=O)(=O)N(CC(N)=O)c1ccc(F)c(Cl)c1`, the AC50 is 12.6 µM [falling, partial curve].

`COc1ccc(NS(=O)(=O)c2cc(C)ccc2NC(=O)c2cc(C)oc2C)cc1`: the AC50 was 7.94 µM [rising, single point].

As for `COC(=O)c1ccccc1NC(=O)COC(=O)CSCC(=O)N1CCOCC1`, the AC50 is 0.2 µM [falling, full curve].

In the case of `Cc1ccc(Nc2nc(C(=O)N3CCC(C(=O)N4CCN(C)CC4)CC3)cs2)cc1`, the AC50 is 5.01 µM [falling, single point].

Regarding `CC(C)CCNC(=O)CN(Cc1ccc2c(c1)OCO2)C(=O)Cn1nnc(-c2cccs2)n1`, the AC50 is 25.1 µM [falling, single point].

`CC(=O)Cc1nsc(NC(=O)c2csc3c2CCCC3)n1`: the AC50 is 10 µM [rising, partial curve].

On to `O=C(Nc1ccccc1F)N(CCCN1CCOCC1)Cc1cc2cc3c(cc2[nH]c1=O)OCCO3`, for which the AC50 was 10 µM [rising, partial curve].

On to `COc1ccc(CNc2ncnc3ccc(-c4cccc(NS(C)(=O)=O)c4)cc23)c(OC)c1`, for which the AC50 was 7.94 µM [rising, partial curve].

In the case of `COC(=O)CSc1nc2c(c(=O)[nH]c(=O)n2C)n1CCC(C)C`, the AC50 is 10 µM [rising, single point].

`COc1nc(NC(C)(C)C)nc(Oc2ccc(=O)n(-c3ccccc3)n2)n1`: the AC50 is 12.6 µM [rising, single point].

Take `CCOC(=O)c1c(C2COc3ccccc3O2)csc1NC(=O)c1ccco1` (stereo unspecified): the AC50 was 2 µM [rising, full curve].

On to `Cc1cc(C)c2c(N)c(C(=O)Nc3nccs3)sc2n1`, for which the AC50 was 15.8 µM [rising, single point].

In the case of `COCC(C)NC(=O)CCS(=O)(=O)c1nc(-c2ccc(OC)cc2)cc(C(F)(F)F)n1` (stereo unspecified), the AC50 is 2.51 µM [falling, full curve].

In the case of `COc1ccc(C(O)P(=O)(O)CCc2ccccc2)cc1` (stereo unspecified), the AC50 is 0.00398 µM [falling, full curve, poor fit].

Regarding `CC(C)(C)c1ccccc1NC(=O)c1ccco1`, the AC50 is 0.794 µM [falling, full curve].

For the molecule `CCC(C(=O)N1CCN(c2cccc(Cl)c2)CC1)c1ccccc1` (stereo unspecified), the AC50 is 10 µM [falling, partial curve].

As for `COc1[nH]c2ccc(F)cc2c1C(=O)OCC1CCN(CCNS(C)(=O)=O)CC1`, the AC50 was 31.6 µM [falling, single point].

In the case of `CC(C)(C)c1csc(N(CCC#N)CCC#N)n1`, the AC50 is 0.0631 µM [falling, full curve, poor fit].

As to `COc1cc(OC)c(C2C3=C(CCCC3=O)Nc3nc4ccccc4n32)cc1OC` (stereo unspecified), the AC50 was 0.0398 µM [rising, full curve, poor fit].

`Cc1ccc(NC(=O)c2ccccc2O)cc1`: the AC50 is 5.01 µM [falling, single point].

Take `Cc1ccc2nc3c(cc(C(=O)NCc4cccnc4)c(=N)n3C(C)C)c(=O)n2c1`: the AC50 was 10 µM [rising, partial curve].

With `Clc1cccc(Cl)c1Cn1cnc2c(N3CCCCCC3)ncnc21`, the AC50 was 2 µM [rising, full curve].

Regarding `Cn1c(=O)c2nc(-c3ccccc3)oc2c2ccccc21`, the half-maximal activity concentration (AC50) was 3.98 µM [rising, single point].

`Cc1n[nH]c(C)c1CCc1nc2c3ccccc3nc(SCC(N)=O)n2n1`: the AC50 was 2 µM [rising, partial curve].

Regarding `CC(Sc1ccccn1)C(=O)Nc1ccccc1` (stereo unspecified), the AC50 was 10 µM [falling, partial curve].

With `COCC(=O)Nc1cccc(Br)c1`, the AC50 was 0.00398 µM [falling, full curve, poor fit].

These data come from PubChem BioAssay AID662 (National Center for Advancing Translational Sciences (NCATS), 2007).
